PubChem BioAssay AID1508597 – Cure First – 2020
This is an unselected part of the about 2,100 reagents, under one of the conditions tested. 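Calls flag viability under 80% in either arm, not effects specific to rucaparib; the reference for percent is not stated.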 Not stated in the record: the 100% reference.

Purpose: 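Knock-downs altering ovarian cancer cell survival with or without PARP inhibitor rucaparib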 (primary screen)
Cell system: human ovarian carcinoma lines grown from tumours: OCI-P5x (papillary serous) and OCI-C5x (clear cell)
Reagents: siRNA pool against human genes, 1.25 pmol siRNA per well
Timing: 72 h or 96 h, depending on the cell culture
Conditions: rucaparib 20 µM (about IC30) or vehicle, present until read-out
Rucaparib or vehicle: Vehicle
Cell line: OCI-C5x (clear cell)
Measurement: 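Luminescent ATP-based viability assay read 72 or 96 h after transfection, depending on culture, given as normalised percent viability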
Direction: viability, normalised: higher = more viable cells remaining
Active means: 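Active when normalised viability falls below 80 percent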
Meaning of the calls: active = viability under 80%; inactive = viability 80% or more

target	PubChem SID	technical replicate	viability, normalised (%)	call
STK35	SID405528555	1	46.9	active
STK35	SID405528555	2	57.7	active
STK35	SID405528555	3	42.9	active
PFKFB3	SID405527861	1	36.6	active
PFKFB3	SID405527861	2	35.2	active
PFKFB3	SID405527861	3	31	active
PINK1	SID405527863	1	67.9	active
PINK1	SID405527863	2	65.5	active
PINK1	SID405527863	3	63.9	active
FN3K	SID405527709	1	47.6	active
FN3K	SID405527709	2	69.4	active
FN3K	SID405527709	3	44.6	active
CHD1L	SID405528100	1	59.8	active
CHD1L	SID405528100	2	72.8	active
CHD1L	SID405528100	3	68.6	active
MAPK9	SID405527370	1	54.9	active
MAPK9	SID405527370	2	76.3	active
MAPK9	SID405527370	3	81.3	inactive
SRPK1	SID405527798	1	89.2	inactive
SRPK1	SID405527798	2	66.4	active
SRPK1	SID405527798	3	53.5	active
DDX53	SID405528198	1	58	active
DDX53	SID405528198	2	40.4	active
DDX53	SID405528198	3	64.5	active
TDRD6	SID405526546	1	57.9	active
TDRD6	SID405526546	2	63.3	active
TDRD6	SID405526546	3	50.1	active
PLCD3	SID405526710	1	65.1	active
PLCD3	SID405526710	2	56.3	active
PLCD3	SID405526710	3	56.8	active
GTF2H5	SID405528458	1	53.4	active
GTF2H5	SID405528458	2	50.3	active
GTF2H5	SID405528458	3	44.1	active
MARK4	SID405527895	1	51.1	active
MARK4	SID405527895	2	56.1	active
MARK4	SID405527895	3	46.4	active
PKD2L2	SID405527883	1	67.9	active
PKD2L2	SID405527883	2	59.1	active
PKD2L2	SID405527883	3	48.5	active
LRWD1	SID405526960	1	44.4	active
LRWD1	SID405526960	2	46.3	active
LRWD1	SID405526960	3	39.4	active
MAP1B	SID405526966	1	44.8	active
MAP1B	SID405526966	2	53	active
MAP1B	SID405526966	3	55	active
VRK2	SID405527754	1	77.5	active
VRK2	SID405527754	2	69.2	active
VRK2	SID405527754	3	63.2	active
DHX15	SID405528209	1	46.8	active
DHX15	SID405528209	2	48.8	active
DHX15	SID405528209	3	59.6	active
ASXL3	SID405527995	1	53.6	active
ASXL3	SID405527995	2	60.5	active
ASXL3	SID405527995	3	49	active
IPMK	SID405528505	1	98.6	inactive
IPMK	SID405528505	2	52.2	active
IPMK	SID405528505	3	62.4	active
